The record followed here is patent EP0791056B1, “LIPID-CLEAVAGE ENZYME COMPLEX” (priority 1994, dated 1996).

In this data set the test system is LCE. The data set can be described thus: LCE assay: cleavage of [14C]-AZT-DMDOPE/AZT-DMDOPE to DMDOP by fractions of human blood cells. Format: biochemical. The protocol:
Das Pipettierschema ist in der folgenden Tabelle angegeben. Tabelle
Zur Untersuchung der enzymatischen Spaltung in Abhängigkeit von der Substratkonzentration wurde eine Substratstammlösung von 0.98 nmol [^14C]-AZT-DMDOPE und 0.7 nmol AZT-DMDOPE/80 µl Aqua bidest. im LCE-Assay angesetzt. Die verschiedenen Substratkonzentrationen im LCE-Assay wurden durch kontinuierliche Verdopplung bzw. Halbierung des Volumens an Substratlösung eingestellt. Die Ansätze wurden in Glasröhrchen (5 ml) vorgelegt und durch Zugabe der Substratlösung gestartet. Die Inkubation wurde bei 37 °C im Wasserbad unter leichtem Schütteln durchgeführt.
Die Reaktionsansätze des LCE-Assays wurden nach entsprechender Inkubationszeit dem Wasserbad entnommen, und die Reaktion durch Zugabe von 750 µl 2-Propanol gestoppt. Nach gründlicher Durchmischung wurden die Ansätze anschließend mit 700 µl auf Raumtemperatur erwärmtem n-Heptan versetzt. Die Ansätze wurden erneut für 30 sec gut gemischt und zur Beschleunigung der Phasentrennung in der Minifuge T bei 3200 rpm für 15 min bei Raumtemperatur zentrifugiert. […]
Die Quantifizierung der enzymatischen Spaltung von AZT-DMDOPE wurde durch eine zweistufge Extraktion des Metaboliten DMDOP mit n-Heptan und anschließender Adsorption von Resten des Substrates AZT-DMDOPE an Kieselgel 60 H durchgeführt. […]

As for `CCCCCCCCCCCCSCC(COP(=O)(O)OC[C@H]1O[C@@H](n2cc(C)c(=O)[nH]c2=O)C[C@@H]1N=[N+]=[N-])OCCCCCCCCCC` (some centres unmarked) [AZT-DMDOPE, (3'-Desoxy-3'-azidothymidin)-5'-phosphorsäure-(3-dodecyl-mercapto-2-decyloxy)-propylester], the “AZT-DMDOPE-spaltende Aktivität um Faktor kleiner als in den Membranfraktionen” value is listed as 1.59 (Zellhomogenate vs. Membranfraktionen stimulierter humaner PBL) and 6.3 (Zytosolfraktionen vs. Membranfraktionen stimulierter humaner PBL).
